Assay results: publication PMC8187512
Results are given in words; binding and its absence hold for the method and conditions named. In cells and extracts the contact can be indirect. Some binding calls cover weakened binding; strength is not graded here.

Amino acid sequences for entries named in this document (tags omitted).
UniProt Q9R210: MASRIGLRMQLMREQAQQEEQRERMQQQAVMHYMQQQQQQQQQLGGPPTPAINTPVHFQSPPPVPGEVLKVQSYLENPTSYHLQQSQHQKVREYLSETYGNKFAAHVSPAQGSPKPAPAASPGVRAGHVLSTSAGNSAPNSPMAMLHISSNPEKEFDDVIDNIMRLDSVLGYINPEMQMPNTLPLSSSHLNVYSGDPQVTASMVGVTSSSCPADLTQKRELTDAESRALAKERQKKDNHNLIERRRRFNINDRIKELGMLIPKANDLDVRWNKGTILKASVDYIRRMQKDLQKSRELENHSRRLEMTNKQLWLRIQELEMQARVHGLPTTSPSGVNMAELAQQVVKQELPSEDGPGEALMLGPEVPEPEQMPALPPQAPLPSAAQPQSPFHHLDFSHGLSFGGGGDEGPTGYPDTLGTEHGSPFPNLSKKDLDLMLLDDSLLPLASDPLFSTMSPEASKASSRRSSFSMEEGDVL
UniProt Q9QZL0: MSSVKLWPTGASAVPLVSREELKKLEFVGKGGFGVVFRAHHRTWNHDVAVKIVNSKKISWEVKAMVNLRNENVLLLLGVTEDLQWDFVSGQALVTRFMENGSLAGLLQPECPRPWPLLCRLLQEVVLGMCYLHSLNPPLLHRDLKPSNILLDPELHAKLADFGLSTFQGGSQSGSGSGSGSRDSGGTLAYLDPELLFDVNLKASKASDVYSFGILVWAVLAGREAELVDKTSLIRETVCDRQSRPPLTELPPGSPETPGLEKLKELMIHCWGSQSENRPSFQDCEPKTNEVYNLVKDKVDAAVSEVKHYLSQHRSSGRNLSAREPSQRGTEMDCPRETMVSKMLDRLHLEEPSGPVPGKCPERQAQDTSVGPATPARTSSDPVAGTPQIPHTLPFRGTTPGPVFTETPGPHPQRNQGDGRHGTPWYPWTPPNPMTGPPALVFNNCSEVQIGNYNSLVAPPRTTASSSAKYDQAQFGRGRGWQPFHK

Target: Transcription factor EB (mouse (endogenous in mouse primary renal PTECs)) (UniProt Q9R210)
Test: co-IP; lysates of cultured mouse PTECs treated with LPS or DMSO (con) for 12 h; Pierce IP Lysis Buffer; anti-RIP3 or anti-TFEB antibody or control IgG on Dynabeads Protein G, 4 °C overnight; immunoblot for TFEB, RIP3 or p-RIP3

Row | binding | Substance
1 | binds | Receptor interacting protein kinase 3 (from UniProt Q9QZL0 1-486)
2 | binds | phosphorylated RIP3 (from UniProt Q9QZL0 1-486)
